Literature values as cited in patent US10285981B2, “Compositions and methods for treating amyotrophic lateral sclerosis in responders” (KNOPP BIOSCIENCES LLC, priority 2013, dated 2019).
At least one structure is not confirmed: it was looked up by name or label, or the drawing left a doubt.

System: subjects with ALS
Settings: faster than placebo (−1.04); cited from earlier work

CN(C)c1ccc(O)c2c1C[C@H]1C[C@H]3[C@H](N(C)C)C(O)=C(C(N)=O)C(=O)[C@@]3(O)C(O)=C1C2=O [minocycline]
rate of decline in the ALSFRS-R score: −1.3 units/month
